# According to the supplement of paper PMC9226226:
# Values joined by “and” are separate entries in the source; they are usually repeats but may differ in a detail not shown here. Identical values can stand only once. This is one part of the list. Some well-known active drugs show little effect in this data set, so a weak value is uncertain.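 Human mesenchymal stem cells lacking the Werner syndrome gene, which age prematurely, were used. Automated live-cell imaging tracked growth across three biological repeats; the twenty drugs raising growth most relative to vehicle advanced, without a stated fixed cutoff.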
# System: Werner syndrome hMSCs (WRN-/-)
# Assay: relative cell density (fold change vs vehicle control); higher = more proliferation (geroprotective)
# Settings: concentration (umol/L): 1, 6 days
Compound,relative cell density (vehicle: Water),relative cell density (vehicle: DMSO)
NCC(=O)O,0.929,
COC1C(O)CC(=O)OC(C)CC=CC=CC(OC2CCC(N(C)C)C(C)O2)C(C)CC(CC=O)C1OC1OC(C)C(OC2CC(C)(O)C(O)C(C)O2)C(N(C)C)C1O (configuration not stated),,1.05
COc1ccc(CCNCC(O)COc2cccc(C)c2)cc1OC (configuration not stated),,1.02
CC(C)(Oc1ccc(Cl)cc1)C(=O)O,,1.12
O=NO,,1.27
CC(=O)NO,,1.45
Cc1ccc(NC(=O)c2ccc(CN3CC[C@H](N(C)C)C3)c(C(F)(F)F)c2)cc1Nc1nccc(-c2cncnc2)n1,,0.874
CC(C)(S)[C@@H](N)C(=O)O,0.661,
CCCCCCCCCCC[C@@H](C[C@@H]1OC(=O)[C@H]1CCCCCC)OC(=O)[C@H](CC(C)C)NC=O,,1.01
CC1(C)CCC(CN2CCN(c3ccc(C(=O)NS(=O)(=O)c4ccc(NCC5CCOCC5)c([N+](=O)[O-])c4)c(Oc4cnc5[nH]ccc5c4)c3)CC2)=C(c2ccc(Cl)cc2)C1,,0.982
COC(=O)c1ccccc1O,,0.909
COc1ccccc1N1CCN(CC(O)COc2cccc3ccccc23)CC1 (configuration not stated),,0.943 and 1.06
CN1CCC(=C2c3ccccc3CC(=O)c3sccc32)CC1,,1.08
CC(C)(C)C(=O)OCOP(=O)(COCCn1cnc2c(N)ncnc21)OCOC(=O)C(C)(C)C,,1.1
CCOc1ccc(Cc2cc([C@@H]3O[C@H](SC)[C@@H](O)[C@H](O)[C@H]3O)ccc2Cl)cc1,,1.07
COc1cc(OC)c(C(=O)CCCN2CCCC2)c(OC)c1,,0.784
N#CC(c1ccc(Cl)cc1)c1c(Cl)cc(-n2ncc(=O)[nH]c2=O)cc1Cl (configuration not stated),,0.906
OCc1cc([C@@H](O)CNCCCCCCOCCOCc2c(Cl)cccc2Cl)ccc1O,,1.12
O.O.O.O.O=C([O-])CC(O)(CC(=O)[O-])C(=O)[O-].[Li+].[Li+].[Li+],,1.29
Nc1c(Br)cc(Br)cc1CN[C@H]1CC[C@H](O)CC1,1.04,
Oc1ccc(Cl)c2cccnc12,,1.15
Cn1ccnc1S,,1.16
CS(=O)(=O)CCNCc1ccc(-c2ccc3ncnc(Nc4ccc(OCc5cccc(F)c5)c(Cl)c4)c3c2)o1,,1.27 and 1.08
C=CC(=O)Nc1cccc(Nc2nc(Nc3ccc(N4CCN(C(C)=O)CC4)cc3OC)ncc2C(F)(F)F)c1,,1.07

Compound,relative cell density (vehicle: Water),relative cell density (vehicle: DMSO)
CC(C)(Sc1cc(C(C)(C)C)c(O)c(C(C)(C)C)c1)Sc1cc(C(C)(C)C)c(O)c(C(C)(C)C)c1,,1.24
COc1cc(NC(C)CCCN)c2ncccc2c1 (configuration not stated),,0.0856
COc1cc(OC)c(/C=C/S(=O)(=O)Cc2ccc(OC)c(NCC(=O)O)c2)c(OC)c1,,0.141
CCCCCCCCCCCCCCCCOc1nc2ccc(C)cc2c(=O)o1,0.789,
NC(N)=Nc1nc(CSCC/C(N)=N/S(N)(=O)=O)cs1,,1
CC/C(=C(/CC)c1ccc(O)cc1)c1ccc(O)cc1,,1.34
CC1=C(/C=C/C(C)=C/C=C/C(C)=C\C(=O)O)C(C)(C)CCC1,,1.14
CCOc1ccc2nc3cc(N)ccc3c(N)c2c1,,1.19
CN(Cc1cnc2nc(N)nc(N)c2n1)c1ccc(C(=O)N[C@@H](CCC(=O)O)C(=O)O)cc1,,0.938
Nc1nc(NC2CC2)c2ncn([C@H]3C=C[C@@H](CO)C3)c2n1,0.958,
C[N+](C)(C)CCOC(=O)CCC(=O)OCC[N+](C)(C)C,0.982,
CCCCCCCCCCCCCCCCOP(=O)([O-])OCC[N+](C)(C)C,0.867,
CSCCNc1nc(SCCC(F)(F)F)nc2c1ncn2[C@@H]1O[C@H](COP(=O)(O)OP(=O)(O)C(Cl)(Cl)P(=O)(O)O)[C@@H](O)[C@H]1O,0.831,
CCOC(=O)c1ccc(N)cc1,,1.29 and 1.24
CCN(CC)CCOC(=O)C(c1ccccc1)c1ccccc1,,1.21
OC(CCCN1CCCCC1)(c1ccccc1)c1ccccc1,,1.02
CN1CCN(c2c(F)cc3c(=O)c(C(=O)O)cn4c3c2OCN4C)CC1,0.906,
O=C1C(=O)c2ccccc2C(O)=C1C1CCC(c2ccc(Cl)cc2)CC1 (configuration not stated),,0.89
Nc1ccn([C@@H]2O[C@H](CO)[C@@H](O)[C@@H]2O)c(=O)n1,0.989,
OC[C@H]1O[C@H](O[C@H]2[C@H](O)[C@@H](O)[C@H](O)O[C@@H]2CO)[C@H](O)[C@@H](O)[C@@H]1O,,0.941
O=c1[nH]c(=O)c2ccccc2o1,,1.09
COc1ccnc(C[S+]([O-])c2nc3cc(OC(F)F)ccc3[nH]2)c1OC (configuration not stated),,1.29 and 1.11
Nc1ccc(S(=O)(=O)Nc2ccccn2)cc1,0.9,
